Experimental data reported in patent US20240336655A1, “AMPHIPHILIC PEPTIDES FOR NUCLEIC ACID AND PROTEIN DELIVERY” (AJK BIOPHARMACEUTICAL, LLC, priority 2021, published 2024).
At least one peptide structure holds a part that was inferred or is arguable (an end, a ring closure or a residue). Peptide text beside a SMILES is read from it.

Experiments:
siRNA = siRNA binding affinity, quantification of free siRNA with SYBR Green II (BC50); settings: binding to siRNA
STAT3 = STAT3 siRNA silencing, protein quantification by Western Blot; format: cell-based, human; settings: for transfection efficiency: as compared to commercial agent lipofectamine

For N=C(N)NCCC[C@@H]1NC(=O)[C@H](CCCNC(=N)N)NC(=O)[C@H](CCCNC(=N)N)NC(=O)[C@H](CCCNC(=N)N)NC(=O)[C@@H](N)CSSC[C@@H](C(=O)O)NC(=O)[C@H](Cc2c[nH]c3ccccc23)NC(=O)[C@H](Cc2c[nH]c3ccccc23)NC(=O)[C@H](Cc2c[nH]c3ccccc23)NC(=O)[C@H](Cc2c[nH]c3ccccc23)NC1=O [[CR4W4C]] (HELM PEPTIDE1{C.R.R.R.R.W.W.W.W.C}$PEPTIDE1,PEPTIDE1,1:R3-10:R3$$$V2.0; N-terminus and C-terminus assumed), which “N/P ratio required for 50% binding (BC50)” value (siRNA) is on record?
The value was “approximately 4 N/P ratio”.

What about the transfection efficiency (STAT3) of the same compound?
The transfection efficiency was “high transfection efficiency”.

With N=C(N)NCCC[C@@H]1NC(=O)[C@H](CCCNC(=N)N)NC(=O)[C@H](CCCNC(=N)N)NC(=O)[C@H](CCCNC(=N)N)NC(=O)[C@H](CCCNC(=N)N)NC(=O)[C@@H](NC(=O)[C@H](Cc2c[nH]c3ccccc23)NC(=O)[C@H](Cc2c[nH]c3ccccc23)NC(=O)[C@H](Cc2c[nH]c3ccccc23)NC(=O)[C@@H](N)Cc2c[nH]c3ccccc23)CSSC[C@@H](C(=O)N[C@@H](Cc2c[nH]c3ccccc23)C(=O)N[C@@H](Cc2c[nH]c3ccccc23)C(=O)N[C@@H](Cc2c[nH]c3ccccc23)C(=O)N[C@@H](Cc2c[nH]c3ccccc23)C(=O)O)NC1=O [W4[CR5C]W4] (HELM PEPTIDE1{W.W.W.W.C.R.R.R.R.R.C.W.W.W.W}$PEPTIDE1,PEPTIDE1,5:R3-11:R3$$$V2.0; N-terminus and C-terminus assumed) as the compound, how does the “N/P ratio required for 50% binding (BC50)” value (siRNA) read?
The value was roughly 10 N/P ratio.

What about the transfection efficiency (STAT3) of the same compound?
The transfection efficiency was “high transfection efficiency”.

And the “transfection efficiency targeting STAT3 mRNA” value (STAT3; breast cancer cell line MDA-MB-231)?
Its value is roughly 80%.
